Test [1] addresses recombinant human BCMA (ELISA antigen, construct not specified) (human) (UniProt Q02223). Nature of the test: ELISA on coated recombinant human BCMA, antibody titrated, HRP anti-Fab detection, absorbance 450 nm.
Test [2] has the same target. Kind of test: ELISA, coated recombinant antigen, IgG titrated.
The target is the same in test [3]. Nature of the test: single clone phage ELISA, coated recombinant BCMA.
Test [4] shares this target. Kind of test: ELISA on recombinant BCMA.

Amino acid sequences for entries named in this document (tags omitted). A change or cut given only in a name is not applied to a line headed by its entry.
UniProt Q02223: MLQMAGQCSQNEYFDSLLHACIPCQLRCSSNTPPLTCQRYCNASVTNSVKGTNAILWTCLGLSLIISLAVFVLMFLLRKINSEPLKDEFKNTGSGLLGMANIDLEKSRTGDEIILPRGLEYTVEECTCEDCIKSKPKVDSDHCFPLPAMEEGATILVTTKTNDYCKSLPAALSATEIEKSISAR

The results in this text go back to patent US20210284749A1.

No constants are given. Whether binding was seen depends on the method and setting. Some results given as binding are weak or reduced against the parent protein; the word gives no strength.

B1: anti-BCMA IgG antibody 2C6 (antibody, V domains shown)
VH: EVQLLESGGGLVQPGGSLRLSCAASGFTFSNYGMSWVRQAPGKGLEWVSSIDYNGSTYYNPSLKSRFTISRDNSKNTLYLQMNSLRAEDTAVYYCAKEHGLFDSWGQGTLVTVSS
VL: EIVLTQSPGTLSLSPGERATLSCRVSQSISSYLNWYQQKPGQAPRLLIYDASTRAIGIPDRFSGSGSGTDFTLTISRLEPEDFAVYYCQQVNSYPITFGQGTKVEIKR
In the case of B1, the binding result in test [1] and in test [2] was “binds” each time.

B2: single clone phage antibody 5B5 (scFv on phage) (scFv, V domains shown)
VH: EVQLLESGGGLVQPGGSLRLSCAASGFTFSGHYWSWVRQAPGKGLEWVSTVSGSGGDTFYADSVKGRFTISRDNSKNTLYLQMNSLRAEDTAVYYCARGHSVMDVWGQGTLVTVSS
VL: EIVLTQSPGTLSLSPGERATLSCRASQGIDSYVAWYQQKPGQAPRLLIYDASLRATGIPDRFSGSGSGTDFTLTISRLEPEDFAVYYCQQYNSWPITFGQGTKLEIKR
For B2, in test [3], the binding entry was “binds”.

B3: single clone phage antibody 2C6 (scFv on phage) (scFv, V domains shown)
VH: EVQLLESGGGLVQPGGSLRLSCAASGFTFSNYGMSWVRQAPGKGLEWVSSIDYNGSTYYNPSLKSRFTISRDNSKNTLYLQMNSLRAEDTAVYYCAKEHGLFDSWGQGTLVTVSS
VL: EIVLTQSPGTLSLSPGERATLSCRVSQSISSYLNWYQQKPGQAPRLLIYDASTRAIGIPDRFSGSGSGTDFTLTISRLEPEDFAVYYCQQVNSYPITFGQGTKVEIKR
As to B3, the binding entry in test [3] is given as “binds”.

B4: single clone phage antibody 2G (scFv on phage) (scFv, V domains shown)
VH: EVQLVESGGGLVQPGGSLRLSCAASGFTFSNYAMSWVRQAPGKGLEWVSAISSSGSTIYYADSVKGRFTISRDNSKNTLYLQMNSLRAEDTAVYYCAKAGYYGSIYAFDYWGQGTLVTVSS
VL: DIQMTQSPSSLSASVGDRVTITCRASQSISSYLNWYQQKPGKAPKLLIYATSRLQSGVPSRFSGSGSGTDFTLTISSLQPEDFATYYCQQSSSFPWTFGQGTKVEIKR
With B4, the binding result in test [3] was “binds”.

B5: mutant antibody 5A6 LM1 (antibody, V domains shown)
VH: EVQLLESGGGLVQPGGSLRLSCAASGFTFSNYGVHWVRQAPGKGLEWVSYISYSGGTYYNPSLKSRFTISRDNSKNTLYLQMNSLRAEDTAVYYCARDSDDFGFDYWGQGTLVTVSS
VL: QSVLTQPPSASGTPGQRVTISCQGESLRSYYVNWYQQLPGTAPKLLIYDHSKRPTGVPDRFSGSKSGTSASLAISGLRSEDEADYYCQSYDSSTVVFGGGTKLTVLG
Take B5: the binding entry in test [4] is “binds”.

B6: single clone phage antibody 5A6 (scFv on phage) (scFv, V domains shown)
VH: EVQLLESGGGLVQPGGSLRLSCAASGFTFSNYGVHWVRQAPGKGLEWVSYISYSGGTYYNPSLKSRFTISRDNSKNTLYLQMNSLRAEDTAVYYCARDSDDFGFDYWGQGTLVTVSS
VL: QSVLTQPPSASGTPGQRVTISCQGDSLRSYYVNWYQQLPGTAPKLLIYDHSKRPTGVPDRFSGSKSGTSASLAISGLRSEDEADYYCQSYDSSTVVFGGGTKLTVLG
On to B6, for which, in test [3], the binding entry is “binds”.

B7: mutant antibody 5A6 LM8 (antibody, V domains shown)
VH: EVQLLESGGGLVQPGGSLRLSCAASGFTFSNYGVHWVRQAPGKGLEWVSYISYSGGTYYNPSLKSRFTISRDNSKNTLYLQMNSLRAEDTAVYYCARDSDDFGFDYWGQGTLVTVSS
VL: QSVLTQPPSASGTPGQRVTISCQGDALRSYYVNWYQQLPGTAPKLLIYDHSKRPTGVPDRFSGSKSGTSASLAISGLRSEDEADYYCQSYDASTVVFGGGTKLTVLG
Regarding B7, in test [4], the binding entry is recorded as “binds”.

B8: mutant antibody 5A6 LM2 (antibody, V domains shown)
VH: EVQLLESGGGLVQPGGSLRLSCAASGFTFSNYGVHWVRQAPGKGLEWVSYISYSGGTYYNPSLKSRFTISRDNSKNTLYLQMNSLRAEDTAVYYCARDSDDFGFDYWGQGTLVTVSS
VL: QSVLTQPPSASGTPGQRVTISCQGDALRSYYVNWYQQLPGTAPKLLIYDHSKRPTGVPDRFSGSKSGTSASLAISGLRSEDEADYYCQSYDSSTVVFGGGTKLTVLG
As to B8, the binding result in test [4] is recorded as “binds”.

B9: mutant antibody 5A6 LM5 (antibody, V domains shown)
VH: EVQLLESGGGLVQPGGSLRLSCAASGFTFSNYGVHWVRQAPGKGLEWVSYISYSGGTYYNPSLKSRFTISRDNSKNTLYLQMNSLRAEDTAVYYCARDSDDFGFDYWGQGTLVTVSS
VL: QSVLTQPPSASGTPGQRVTISCQGESLRSYYVNWYQQLPGTAPKLLIYDHSKRPTGVPDRFSGSKSGTSASLAISGLRSEDEADYYCQSYESSTVVFGGGTKLTVLG
For the molecule B9, in test [4], the binding result is on record as “binds”.

B10: mutant antibody 5A6 LM7 (antibody, V domains shown)
VH: EVQLLESGGGLVQPGGSLRLSCAASGFTFSNYGVHWVRQAPGKGLEWVSYISYSGGTYYNPSLKSRFTISRDNSKNTLYLQMNSLRAEDTAVYYCARDSDDFGFDYWGQGTLVTVSS
VL: QSVLTQPPSASGTPGQRVTISCQGDALRSYYVNWYQQLPGTAPKLLIYDHSKRPTGVPDRFSGSKSGTSASLAISGLRSEDEADYYCQSYESSTVVFGGGTKLTVLG
In the case of B10, in test [4], the binding result was “binds”.

B11: mutant antibody 5A6 LM4 (antibody, V domains shown)
VH: EVQLLESGGGLVQPGGSLRLSCAASGFTFSNYGVHWVRQAPGKGLEWVSYISYSGGTYYNPSLKSRFTISRDNSKNTLYLQMNSLRAEDTAVYYCARDSDDFGFDYWGQGTLVTVSS
VL: QSVLTQPPSASGTPGQRVTISCQGDSLRSYYVNWYQQLPGTAPKLLIYDHSKRPTGVPDRFSGSKSGTSASLAISGLRSEDEADYYCQSYDASTVVFGGGTKLTVLG
On to B11, for which the binding result in test [4] is recorded as “binds”.

B12: mutant antibody 5A6 LM3 (antibody, V domains shown)
VH: EVQLLESGGGLVQPGGSLRLSCAASGFTFSNYGVHWVRQAPGKGLEWVSYISYSGGTYYNPSLKSRFTISRDNSKNTLYLQMNSLRAEDTAVYYCARDSDDFGFDYWGQGTLVTVSS
VL: QSVLTQPPSASGTPGQRVTISCQGDSLRSYYVNWYQQLPGTAPKLLIYDHSKRPTGVPDRFSGSKSGTSASLAISGLRSEDEADYYCQSYESSTVVFGGGTKLTVLG
As for B12, the binding entry in test [4] is recorded as “binds”.

B13: single clone phage antibody 4H9 (scFv on phage) (scFv, V domains shown)
VH: EVQLLESGGGLVQPGGSLRLSCAASGFTFSGYSMSWVRQAPGKGLEWVSSIYHTGYTYYNPSLKSRFTISRDNSKNTLYLQMNSLRAEDTAVYYCARYKSGAFDIWGQGTLVTVSS
VL: EIVLTQSPGTLSLSPGERATLSCRASQSVSRNLAWYQQKPGQAPRLLIYGVSSRATGIPDRFSGSGSGTDFTLTISRLEPEDFAVYYCQQYGSSPPTFGQGTKVEIKR
With B13, the binding entry in test [3] is listed as “binds”.

B14: single clone phage antibody 5C3 (scFv on phage) (scFv, V domains shown)
VH: EVQLLESGGGLVQPGGSLRLSCAASGFTFSDYYIHWVRQAPGKGLEWVSAISGSGGSTYYADSVKGRFTISRDNSKNTLYLQMNSLRAEDTAVYYCASDLGDTTFDSWGQGTLVTVSS
VL: EIVLTQSPGTLSLSPGERATLSCQASDDISNYLNWYQQKPGQAPRLLIYGVSNRASGIPDRFSGSGSGTDFTLTISRLEPEDFAVYYCQQSYSTPPITFGQGTKLEIKR
As to B14, the binding result in test [3] is recorded as “binds”.

B15: mutant antibody 5D5 LM1 (antibody, V domains shown)
VH: EVQLLESGGGLVQPGGSLRLSCAASGFTFSDYGLSWVRQAPGKGLEWVSLIDSSGSSTFYADSVKGRFTISRDNSKNTLYLQMNSLRAEDTAVYYCAKEHGLFDSWGQGTLVTVSS
VL: EIVLTQSPGTLSLSPGERATLSCKASQDIDNDINWYQQKPGQAPRLLIYDASLRATGIPDRFSGSGSGTDFTLTISRLEPEDFAVYYCQQSLRTPITFGQGTKLEIKR
Consider B15, for which the binding result in test [4] is “binds”.

B16: mutant antibody 5D5 LM3 (antibody, V domains shown)
VH: EVQLLESGGGLVQPGGSLRLSCAASGFTFSDYGLSWVRQAPGKGLEWVSLIDSSGSSTFYADSVKGRFTISRDNSKNTLYLQMNSLRAEDTAVYYCAKEHGLFDSWGQGTLVTVSS
VL: EIVLTQSPGTLSLSPGERATLSCKASQDIDADINWYQQKPGQAPRLLIYDASLRATGIPDRFSGSGSGTDFTLTISRLEPEDFAVYYCQQSLRTPITFGQGTKLEIKR
With B16, in test [4], the binding entry is “binds”.

B17: mutant antibody 5D5 LM2 (antibody, V domains shown)
VH: EVQLLESGGGLVQPGGSLRLSCAASGFTFSDYGLSWVRQAPGKGLEWVSLIDSSGSSTFYADSVKGRFTISRDNSKNTLYLQMNSLRAEDTAVYYCAKEHGLFDSWGQGTLVTVSS
VL: EIVLTQSPGTLSLSPGERATLSCKASQDIDEDINWYQQKPGQAPRLLIYDASLRATGIPDRFSGSGSGTDFTLTISRLEPEDFAVYYCQQSLRTPITFGQGTKLEIKR
With B17, the binding result in test [4] is “binds”.

B18: single clone phage antibody 5D5 (scFv on phage) (scFv, V domains shown)
VH: EVQLLESGGGLVQPGGSLRLSCAASGFTFSDYGLSWVRQAPGKGLEWVSLIDSSGSSTFYADSVKGRFTISRDNSKNTLYLQMNSLRAEDTAVYYCAKEHGLFDSWGQGTLVTVSS
VL: EIVLTQSPGTLSLSPGERATLSCKASQDIDDDINWYQQKPGQAPRLLIYDASLRATGIPDRFSGSGSGTDFTLTISRLEPEDFAVYYCQQSLRTPITFGQGTKLEIKR
As to B18, the binding entry in test [3] is listed as “binds”.

B19: mutant antibody 5D5 LM5 (antibody, V domains shown)
VH: EVQLLESGGGLVQPGGSLRLSCAASGFTFSDYGLSWVRQAPGKGLEWVSLIDSSGSSTFYADSVKGRFTISRDNSKNTLYLQMNSLRAEDTAVYYCAKEHGLFDSWGQGTLVTVSS
VL: EIVLTQSPGTLSLSPGERATLSCKASQDIDDEINWYQQKPGQAPRLLIYDASLRATGIPDRFSGSGSGTDFTLTISRLEPEDFAVYYCQQSLRTPITFGQGTKLEIKR
In the case of B19, the binding entry in test [4] is listed as “binds”.

B20: single clone phage antibody B58 (scFv on phage) (scFv, V domains shown)
VH: EVQLLESGGGLVQPGGSLRLSCAASGFTFSNYDMSWVRQAPGKGLEWVSWIYPSDSSIYYADSVKGRFTISRDNSKNTLYLQMNSLRAEDTAVYYCARGPFANKYRQFDYWGQGTLVTVSS
VL: QSVLTQPPSASGTPGQRVTISCSGSSSNIGSNSVSWYQQLPGTAPKLLIYADSKRPSGVPDRFSGSKSGTSASLAISGLRSEDEADYYCGSWDYSLSGYVFGGGTKLTVL
Consider B20, for which the binding result in test [3] is “binds”.
